# Measured values as given in the supplement of paper PMC8728848.
# The other results are listed elsewhere or left out.
# Columns and labels:
# Test in all cases: glycan array binding signal (z-score within array); higher = stronger binding
# Settings in all cases: glycan notation: IUPAC condensed, linker removed
# [1] = target: Fuc(a1-2)[Gal(a1-3)]Gal(b1-4)GlcNAc(b1-2)Man(a1-3)[Fuc(a1-2)[Gal(a1-3)]Gal(b1-4)GlcNAc(b1-2)Man(a1-6)]Man(b1-4)GlcNAc(b1-4)[Fuc(a1-6)]GlcNAc
# Method in brief: (§1)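 From the Consortium for Functional Glycomics database, 3228 arrays were curated, keeping only those whose protein sequence was available. Binding is given as a within-array Z-score averaged across arrays sharing a protein sequence and across linkers. Negative Z-scores can be read as non-binding.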
# [2] = target: Fuc(a1-2)[Gal(a1-3)]Gal(b1-4)GlcNAc(b1-3)GalNAc
# Method in brief: as §1
# [3] = target: Fuc(a1-2)[Gal(a1-3)]Gal(b1-4)GlcNAc(b1-3)[Fuc(a1-2)[Gal(a1-3)]Gal(b1-4)GlcNAc(b1-6)]GalNAc
# Method in brief: as §1
# [4] = target: Fuc(a1-2)[Gal(a1-3)]Gal(b1-4)GlcNAc(b1-6)GalNAc
# Method in brief: as §1
# [5] = target: Fuc(a1-2)[Gal(a1-3)]Gal(b1-4)[Fuc(a1-3)]Glc
# Method in brief: as §1
# [6] = target: Fuc(a1-2)[Gal(a1-3)]Gal(b1-4)[Fuc(a1-3)]GlcNAc
# Method in brief: as §1
# [7] = target: Fuc(a1-2)[Gal(a1-3)]Gal(b1-4)[Fuc(a1-3)]GlcNAc(b1-3)GalNAc
# Method in brief: as §1
# [8] = target: Fuc(a1-2)[Gal(a1-4)]Gal(b1-4)GlcNAc
# Method in brief: as §1
# [9] = target: Fuc(a1-2)[GalNAc(a1-3)]Gal
# Method in brief: as §1
# [10] = target: Fuc(a1-2)[GalNAc(a1-3)]Gal(b1-3)GalNAc(a1-3)[Fuc(a1-2)]Gal(b1-4)GlcNAc
# Method in brief: as §1
# [11] = target: Fuc(a1-2)[GalNAc(a1-3)]Gal(b1-3)GalNAc(b1-3)Gal(a1-4)Gal(b1-4)Glc
# Method in brief: as §1
# [12] = target: Fuc(a1-2)[GalNAc(a1-3)]Gal(b1-3)GlcNAc
# Method in brief: as §1
# [13] = target: Fuc(a1-2)[GalNAc(a1-3)]Gal(b1-3)GlcNAc(b1-2)Man(a1-3)[Fuc(a1-2)[GalNAc(a1-3)]Gal(b1-3)GlcNAc(b1-2)Man(a1-6)]Man(b1-4)GlcNAc(b1-4)GlcNAc
# Method in brief: as §1
# [14] = target: Fuc(a1-2)[GalNAc(a1-3)]Gal(b1-3)GlcNAc(b1-2)Man(a1-3)[Fuc(a1-2)[GalNAc(a1-3)]Gal(b1-3)GlcNAc(b1-2)Man(a1-6)]Man(b1-4)GlcNAc(b1-4)[Fuc(a1-6)]GlcNAc
# Method in brief: as §1
# [15] = target: Fuc(a1-2)[GalNAc(a1-3)]Gal(b1-3)GlcNAc(b1-3)GalNAc
# Method in brief: as §1
# [16] = target: Fuc(a1-2)[GalNAc(a1-3)]Gal(b1-3)GlcNAc(b1-6)GalNAc
# Method in brief: as §1
# [17] = target: Fuc(a1-2)[GalNAc(a1-3)]Gal(b1-4)Glc
# Method in brief: as §1
# [18] = target: Fuc(a1-2)[GalNAc(a1-3)]Gal(b1-4)GlcNAc
# Method in brief: as §1
# [19] = target: Fuc(a1-2)[GalNAc(a1-3)]Gal(b1-4)GlcNAc(b1-2)Man
# Method in brief: as §1
# [20] = target: Fuc(a1-2)[GalNAc(a1-3)]Gal(b1-4)GlcNAc(b1-2)Man(a1-3)[Fuc(a1-2)[GalNAc(a1-3)]Gal(b1-4)GlcNAc(b1-2)Man(a1-6)]Man(b1-4)GlcNAc(b1-4)GlcNAc
# Method in brief: as §1
# [21] = target: Fuc(a1-2)[GalNAc(a1-3)]Gal(b1-4)GlcNAc(b1-2)Man(a1-3)[Fuc(a1-2)[GalNAc(a1-3)]Gal(b1-4)GlcNAc(b1-2)Man(a1-6)]Man(b1-4)GlcNAc(b1-4)[Fuc(a1-6)]GlcNAc
# Method in brief: as §1
# [22] = target: Fuc(a1-2)[GalNAc(a1-3)]Gal(b1-4)GlcNAc(b1-3)Gal(b1-4)GlcNAc
# Method in brief: as §1
# [23] = target: Fuc(a1-2)[GalNAc(a1-3)]Gal(b1-4)GlcNAc(b1-3)Gal(b1-4)GlcNAc(b1-3)Gal(b1-4)GlcNAc
# Method in brief: as §1
# [24] = target: Fuc(a1-2)[GalNAc(a1-3)]Gal(b1-4)GlcNAc(b1-3)GalNAc
# Method in brief: as §1
# [25] = target: Fuc(a1-2)[GalNAc(a1-3)]Gal(b1-4)GlcNAc(b1-3)[Fuc(a1-2)[GalNAc(a1-3)]Gal(b1-4)GlcNAc(b1-6)]GalNAc
# Method in brief: as §1
# [26] = target: Fuc(a1-2)[GalNAc(a1-3)]Gal(b1-4)GlcNAc(b1-6)GalNAc
# Method in brief: as §1
# [27] = target: Fuc(a1-2)[GalNAc(a1-3)]Gal(b1-4)[Fuc(a1-3)]GlcNAc
# Method in brief: as §1
# [28] = target: Fuc(a1-2)[GalNAc(a1-3)]Gal(b1-4)[Fuc(a1-3)]GlcNAc(b1-3)GalNAc
# Method in brief: as §1
# [29] = target: Fuc(a1-2)[GalNAc(a1-4)]Gal(b1-4)GlcNAc
# Method in brief: as §1
# [30] = target: Fuc(a1-2)[GalNAc(b1-3)]Gal
# Method in brief: as §1
# Fuc(a1-3)GlcNAc = target: Fuc(a1-3)GlcNAc
# Method in brief: as §1
# [31] = target: Fuc(a1-3)[Gal(b1-4)]Glc6S
# Method in brief: as §1
# [32] = target: Fuc(a1-3)[Gal(b1-4)]GlcNAc
# Method in brief: as §1
# [33] = target: Fuc(a1-3)[Gal(b1-4)]GlcNAc(b1-2)Man
# Method in brief: as §1
# [34] = target: Fuc(a1-3)[Gal(b1-4)]GlcNAc(b1-2)Man(a1-3)[Fuc(a1-3)[Gal(b1-4)]GlcNAc(b1-2)Man(a1-6)]Man(b1-4)GlcNAc(b1-4)GlcNAc
# Method in brief: as §1
# [35] = target: Fuc(a1-3)[Gal(b1-4)]GlcNAc(b1-2)Man(a1-3)[Fuc(a1-3)[Gal(b1-4)]GlcNAc(b1-2)Man(a1-6)]Man(b1-4)GlcNAc(b1-4)[Fuc(a1-6)]GlcNAc
# Method in brief: as §1
# [36] = target: Fuc(a1-3)[Gal(b1-4)]GlcNAc(b1-3)Gal(b1-3)[Fuc(a1-4)]GlcNAc
# Method in brief: as §1
binder,measurement,setting,value
PX9961W-pdi-543-27-543 (Parabacteroides distasonis) (protein) EGNATTTSYFLNDQQAIDAIDGLYERFHQEGCYGRELFWEQGAACDIVWGRTRGYNSLATLAYTGDESPLRDVFSRMYSTMSRANWIIQELVKKEKGTTLTAVEKRSLGEAYFSRGWAHYLIAYRYGTDKQGVPFVRYEDFPDDYDNSIPPQQATVMDNYKLIIEDMDKAIAYLPIFESYDADNRGRAHQAAAVAFKAKTYAYWATWDATQWNNVIEMVNQLENNYNRDLAPTFAELFSSDLKDYWNAEYLWTIPSIGGALPGGTEFPGIILENKGWGKYNGWGQMKPSYDIYEEMAKDGKGNDRLVRSILEYNQEFPFFGETRKFWSTSDLEAGFMINKYMDAFKYSDPVGEGAVSANGDWPTVRVNFPIIRFAEMLLFRAEAYLMTGQADKATADINRIRLRSNLTPLTGTATMKDLYHERRCELAFEFTDHLFDLKRWNRSSNADIKTLADKELNAHPRIRRYEDRANPESAFTIIGYEDYTNKNAYQAHMMVFPYPSEEITKSNGQLKQNEGY,glycan array binding signal (z-score),[1],0.926
same,glycan array binding signal (z-score),[2],-0.242
same,glycan array binding signal (z-score),[3],-0.802
same,glycan array binding signal (z-score),[4],-0.831
same,glycan array binding signal (z-score),[5],0.033
same,glycan array binding signal (z-score),[6],0.755
same,glycan array binding signal (z-score),[7],0.964
same,glycan array binding signal (z-score),[8],-0.708
same,glycan array binding signal (z-score),[9],-0.221
same,glycan array binding signal (z-score),[10],-1.17
same,glycan array binding signal (z-score),[11],-0.575
same,glycan array binding signal (z-score),[12],-0.704
same,glycan array binding signal (z-score),[13],-0.034
same,glycan array binding signal (z-score),[14],0.276
same,glycan array binding signal (z-score),[15],0.345
same,glycan array binding signal (z-score),[16],-0.379
same,glycan array binding signal (z-score),[17],0.547
same,glycan array binding signal (z-score),[18],-0.457
same,glycan array binding signal (z-score),[19],0.843
same,glycan array binding signal (z-score),[20],0.645
same,glycan array binding signal (z-score),[21],-0.977
same,glycan array binding signal (z-score),[22],-1.08
same,glycan array binding signal (z-score),[23],0.13
same,glycan array binding signal (z-score),[24],0.133
same,glycan array binding signal (z-score),[25],0.206
same,glycan array binding signal (z-score),[26],0.203
same,glycan array binding signal (z-score),[27],0.242
same,glycan array binding signal (z-score),[28],0.227
same,glycan array binding signal (z-score),[29],-0.092
same,glycan array binding signal (z-score),[30],-0.355
same,glycan array binding signal (z-score),Fuc(a1-3)GlcNAc,-0.334
same,glycan array binding signal (z-score),[31],0.459
same,glycan array binding signal (z-score),[32],0.714
same,glycan array binding signal (z-score),[33],0.236
same,glycan array binding signal (z-score),[34],0.348
same,glycan array binding signal (z-score),[35],-0.663
same,glycan array binding signal (z-score),[36],1.21

# A portion taken from the entries so far, for reference:
binder,measurement,setting,value
PX9961W-pdi-543-27-543 (Parabacteroides distasonis) (protein) EGNATTTSYFLNDQQAIDAIDGLYERFHQEGCYGRELFWEQGAACDIVWGRTRGYNSLATLAYTGDESPLRDVFSRMYSTMSRANWIIQELVKKEKGTTLTAVEKRSLGEAYFSRGWAHYLIAYRYGTDKQGVPFVRYEDFPDDYDNSIPPQQATVMDNYKLIIEDMDKAIAYLPIFESYDADNRGRAHQAAAVAFKAKTYAYWATWDATQWNNVIEMVNQLENNYNRDLAPTFAELFSSDLKDYWNAEYLWTIPSIGGALPGGTEFPGIILENKGWGKYNGWGQMKPSYDIYEEMAKDGKGNDRLVRSILEYNQEFPFFGETRKFWSTSDLEAGFMINKYMDAFKYSDPVGEGAVSANGDWPTVRVNFPIIRFAEMLLFRAEAYLMTGQADKATADINRIRLRSNLTPLTGTATMKDLYHERRCELAFEFTDHLFDLKRWNRSSNADIKTLADKELNAHPRIRRYEDRANPESAFTIIGYEDYTNKNAYQAHMMVFPYPSEEITKSNGQLKQNEGY,glycan array binding signal (z-score),[25],0.206
same,glycan array binding signal (z-score),[26],0.203
